PubChem BioAssay AID504774 | Drosophila RNAi Screening Center | 2011
Screen: 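Fly genes whose loss alters survival after alkylation damage to DNA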 (primary screen). System: Drosophila Kc167 cells. Reagents: long dsRNA against Drosophila genes, about 0.25 µg dsRNA per well. Timing: about 6 days: 3 days knock-down, then 3 days with or without MMS. Conditions: methyl methanesulphonate 0.004% (w/v) for 3 days after knock-down. Read-out: 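Viability in wells given MMS, read as ATP luminescence, normalised by quantiles plate by plate and averaged across replicates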. Reading the numbers: mean viability with MMS: higher = more surviving cells after MMS.
The screen tested about 23,000 reagents; shown is an unselected part of those with a known target gene and a result. 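Values are quantile-normalised luminescence on an arbitrary scale; higher means more cells surviving MMS.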 Not all columns of the deposit are shown. Reagent sequences are not shown.

After knock-down of CG32376 [DRSC22754], the screen gave mean viability with MMS 3.49e6.
Depletion of CG16853 [DRSC01877] gave: mean viability with MMS 3.44e6.
For mAChR-A [DRSC04702] the deposit lists mean viability with MMS 3.60e6.
Against Rab27 [DRSC18567] the deposit lists mean viability with MMS 3.62e6.
Against CG8635 [DRSC07226] the deposit lists mean viability with MMS 3.60e6.
Depletion of CG17224 [DRSC00489] gave: mean viability with MMS 3.75e6.
CG17196 [DRSC15189] showed mean viability with MMS 3.65e6.
With knock-down of Ent3 [DRSC09822], the screen gave mean viability with MMS 3.44e6.
Knock-down of ND-ACP [DRSC08724] gave: mean viability with MMS 3.53e6.
Against Osi8 [DRSC12277] the deposit lists mean viability with MMS 3.44e6.
After knock-down of Picot [DRSC07508], the screen gave mean viability with MMS 3.51e6.
For Pdp1 [DRSC08896] the deposit lists mean viability with MMS 2.76e6.
Depletion of Pdp1 [DRSC08897] came out at: mean viability with MMS 2.58e6.
Against Pdp1 [DRSC11251], the entry reads mean viability with MMS 3.59e6.
For Pdp1 [DRSC22973] the deposit lists mean viability with MMS 2.90e6.
Silencing of CG12994 [DRSC19192] resulted in: mean viability with MMS 3.64e6.
Knock-down of CG12994 [DRSC19514] came out at: mean viability with MMS 3.18e6.
Against Jon65Aii [DRSC10665], the entry reads mean viability with MMS 3.74e6.
CG10508 [DRSC11612] gave mean viability with MMS 3.43e6.
With knock-down of CG10508 [DRSC11613], the screen gave mean viability with MMS 3.54e6.
Against Cdc42 [DRSC20228], the entry reads mean viability with MMS 3.44e6.

Entries listed so far whose gene name begins with P or p:
Picot [DRSC07508] — mean viability with MMS = 3.51e6
Pdp1 [DRSC08896] — mean viability with MMS = 2.76e6
Pdp1 [DRSC08897] — mean viability with MMS = 2.58e6
Pdp1 [DRSC11251] — mean viability with MMS = 3.59e6
Pdp1 [DRSC22973] — mean viability with MMS = 2.90e6

Further results follow:
With knock-down of Ugt50B3 [DRSC04778] the results were mean viability with MMS 3.62e6.
For Ugt50B3 [DRSC04779], the entry reads mean viability with MMS 3.65e6.
Ugt50B3 [DRSC21419] showed mean viability with MMS 3.48e6.
For Ciz1 [DRSC09675] the deposit lists mean viability with MMS 3.09e6.
Depletion of CG42531 [DRSC05318] gave: mean viability with MMS 3.75e6.
aqz [DRSC16570] gave mean viability with MMS 3.60e6.
Against brv1 [DRSC11076], the values are mean viability with MMS 3.63e6.
After knock-down of CG3308 [DRSC15474], the screen gave mean viability with MMS 3.57e6.
Against wb [DRSC01375], the entry reads mean viability with MMS 2.79e6.
Silencing of wb [DRSC03634] resulted in: mean viability with MMS 3.61e6.
For wb [DRSC23003], the values are mean viability with MMS 2.86e6.
Knock-down of Uev1A [DRSC09763] gave: mean viability with MMS 3.46e6.
Knock-down of CG30075 [DRSC05484] resulted in: mean viability with MMS 3.47e6.
Depletion of zfh2 [DRSC17178] gave: mean viability with MMS 3.51e6.
